The campaign covered roughly 410,000 compounds. About 18,000 (4.4%) were called active. Inconclusive results, whose numbers are uncertain, are shown with a selection of clear calls. Cut-off read from the data, not from the text of the source: active = activity change below about -60%; inconclusive = no clear call, values can overlap the other calls; inactive = above about -39%.
Assay: qHTS Assay for inhibitors of the human cytomegalovirus (HCMV)
Conditions: HFF cells, HCMV-luciferase reporter, 72 h; at 57.5 µM; active compounds read low
Method in brief: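 HFF cells seeded 16 h at 37C, treated with compounds, infected with luciferase-reporter HCMV at MOI 1 PFU/cell; luciferase read at 72 h post infection, normalized to buffer-only and Salinomycin controls.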
% is set by controls: 0 for no effect and ±100 for the full control effect.

Row | SMILES | activity change, negative = inhibition
1 | COc1cc2ncnc(NCc3cccc(Cl)c3)c2cc1OC | inconclusive: -56.7%
2 | CCOC(=O)c1c(-c2ccc(C)o2)csc1NC(=O)CN(C)CC(=O)Nc1ccc(C)cc1 | inconclusive: -44.7%
3 | CC(OC(=O)c1cccc(S(=O)(=O)Nc2cccc(C(F)(F)F)c2)c1)C(=O)Nc1ccc2c(c1)OCCO2 (centres undefined) | inconclusive: -56.9%
4 | COc1ccc(C)cc1NC(=O)Cn1c(=O)oc2cc(S(=O)(=O)N3CCCCCC3)ccc21 | inconclusive: 0%
5 | CCOc1ccc(CNc2nc3ccccc3n2C)cc1 | inactive: 134%
6 | CCCCNC(=O)c1cccc(NC(=O)C(=O)c2ccccc2NC(C)=O)c1 | inconclusive: -41%
7 | CCCN(c1ccccc1F)S(=O)(=O)c1cc(-c2cc(C)no2)ccc1C | inactive: -14.2%
8 | O=C(Nc1ccccc1)c1ccccc1NC(=O)c1ccccc1C(=O)O | inconclusive: -40.2%
9 | CCOc1ccccc1N=NC1C(=O)N(C(N)=S)N=C1C (centres undefined) | inconclusive: -48.4%
10 | CCOc1ccc(C(C)(C)COCc2cccc(Oc3ccccc3)c2)cc1 | inactive: -8.22%
11 | COc1ccc(NC(=O)NC23CC4(C)CC(C)(CC(C)(C4)C2)C3)cc1 | inconclusive: -43.8%
12 | COc1ccc(C(=O)N2CCN(C3CCC(c4ccccc4)CC3)CC2)cc1OC (centres undefined) | inactive: 17.5%
13 | Cc1c(-c2ccccc2)nc(N)c(C#N)c1-c1ccco1 | inactive: -1.78%
14 | CCC(C)n1c(OC)nc2c1c(=O)n(C)c(=O)n2C (centres undefined) | inconclusive: -44.1%
15 | CCOc1ccccc1NC(=O)CSc1cn(CC(=O)N2CCCCCC2)c2ccccc12 | inconclusive: -56.2%
16 | Cc1cc([N+](=O)[O-])nn1CC(=O)NCCc1c[nH]c2ccccc12 | inactive: -39.8%
17 | COc1cc(OC)c(NC(=O)C(CC(C)C)N2Cc3ccccc3C2=O)cc1Cl (centres undefined) | active: -65.3%
18 | COc1ccccc1CCNC(=O)c1cc(-c2ccncc2)nc2ccc(Br)cc12 | active: -66.2%
19 | CCOC(=O)Cn1cnc2c(nnn2-c2ccc(OC)cc2)c1=O | inactive: -12.4%
20 | Cc1ccc(NC(=O)CCN2C(=O)c3ccccc3Sc3ncccc32)cc1 | inconclusive: -51.8%
21 | Cc1ccc(NC(=O)C(=O)NCc2ccc(/C=N/NC(=O)c3c(C)nc4cc(C)ccn34)o2)cc1 | inconclusive: -43.7%
22 | CSc1ccccc1NC(=O)c1ccc(Br)o1 | inconclusive: -45.6%
23 | O=C(COC(=O)c1n[nH]c2ccccc12)NCCc1ccc(Cl)cc1 | inconclusive: 0%
24 | CC(C)C(=O)N[C@@H]1c2ccccc2CC[C@@H]1OCc1ccccc1 | active: -82.2%

2 compounds picked at random from those above:
Row | SMILES | activity change, negative = inhibition
14 | CCC(C)n1c(OC)nc2c1c(=O)n(C)c(=O)n2C (centres undefined) | inconclusive: -44.1%
6 | CCCCNC(=O)c1cccc(NC(=O)C(=O)c2ccccc2NC(C)=O)c1 | inconclusive: -41%

— PubChem BioAssay AID1259415 (National Center for Advancing Translational Sciences (NCATS), 2018)
